Test results as given in paper PMC6615643.
No constants are given. Whether binding was seen depends on the method and setting. In cells and extracts the contact can be indirect. Some entries that bind do so weakly or less than the wild type.

The chains behind the UniProt entries cited, without tags or fusion partners.
UniProt Q9Y5X1: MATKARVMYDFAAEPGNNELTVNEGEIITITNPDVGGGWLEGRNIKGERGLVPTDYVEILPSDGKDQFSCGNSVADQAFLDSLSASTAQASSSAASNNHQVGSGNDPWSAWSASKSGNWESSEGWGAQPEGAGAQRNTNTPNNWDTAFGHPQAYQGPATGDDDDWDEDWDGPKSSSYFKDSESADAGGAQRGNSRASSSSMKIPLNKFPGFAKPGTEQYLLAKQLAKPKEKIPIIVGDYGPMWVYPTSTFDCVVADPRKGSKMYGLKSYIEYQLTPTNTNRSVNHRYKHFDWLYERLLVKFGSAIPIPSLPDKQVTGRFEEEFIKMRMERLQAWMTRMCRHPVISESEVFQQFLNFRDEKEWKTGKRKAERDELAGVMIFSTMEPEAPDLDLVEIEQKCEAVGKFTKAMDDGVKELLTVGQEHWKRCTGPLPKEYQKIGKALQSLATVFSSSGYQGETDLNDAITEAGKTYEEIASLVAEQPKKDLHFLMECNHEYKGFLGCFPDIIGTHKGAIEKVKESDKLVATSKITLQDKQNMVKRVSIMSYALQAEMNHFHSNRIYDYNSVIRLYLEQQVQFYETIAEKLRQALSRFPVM

B1: SNX18 (protein, UniProt Q96RF0 1-628)
chain: MALRARALYDFRSENPGEISLREHEVLSLCSEQDIEGWLEGVNSRGDRGLFPASYVQVIRAPEPGPAGDGGPGAPARYANVPPGGFEPLPVAPPASFKPPPDAFQALLQPQQAPPPSTFQPPGAGFPYGGGALQPSPQQLYGGYQASQGSDDDWDDEWDDSSTVADEPGALGSGAYPDLDGSSSAGVGAAGRYRLSTRSDLSLGSRGGSVPPQHHPSGPKSSATVSRNLNRFSTFVKSGGEAFVLGEASGFVKDGDKLCVVLGPYGPEWQENPYPFQCTIDDPTKQTKFKGMKSYISYKLVPTHTQVPVHRRYKHFDWLYARLAEKFPVISVPHLPEKQATGRFEEDFISKRRKGLIWWMNHMASHPVLAQCDVFQHFLTCPSSTDEKAWKQGKRKAEKDEMVGANFFLTLSTPPAAALDLQEVESKIDGFKCFTKKMDDSALQLNHTANEFARKQVTGFKKEYQKVGQSFRGLSQAFELDQQAFSVGLNQAIAFTGDAYDAIGELFAEQPRQDLDPVMDLLALYQGHLANFPDIIHVQKGKAWPLEQVIWSVLCRLKGATLTAVPLWVSESYSTGEEASRDVDAWVFSLECKLDCSTGSFLLEYLALGNEYSFSKVQRVPLMTVLSF
B2: SNX33 (protein, UniProt Q8WV41 1-574)
chain: MALKGRALYDFHSENKEEISIQQDEDLVIFSETSLDGWLQGQNSRGETGLFPASYVEIVRSGISTNHADYSSSPAGSPGAQVSLYNSPSVASPARSGGGSGFLSNQGSFEEDDDDDWDDWDDGCTVVEEPRAGGLGTNGHPPLNLSYPGAYPSQHMAFRPKPPLERQDSLASAKRGSVVGRNLNRFSCFVRSGVEAFILGDVPMMAKIAETYSIEMGPRGPQWKANPHPFACSVEDPTKQTKFKGIKSYISYKLTPTHAASPVYRRYKHFDWLYNRLLHKFTVISVPHLPEKQATGRFEEDFIEKRKRRLILWMDHMTSHPVLSQYEGFQHFLSCLDDKQWKMGKRRAEKDEMVGASFLLTFQIPTEHQDLQDVEDRVDTFKAFSKKMDDSVLQLSTVASELVRKHVGGFRKEFQKLGSAFQAISHSFQMDPPFCSEALNSAISHTGRTYEAIGEMFAEQPKNDLFQMLDTLSLYQGLLSNFPDIIHLQKGAFAKVKESQRMSDEGRMVQDEADGIRRRCRVVGFALQAEMNHFHQRRELDFKHMMQNYLRQQILFYQRVGQQLEKTLRMYDNL

Molecular target: EspF, Flag-tagged, translocated into HeLa cells from EPEC-espF+EspF (enteropathogenic Escherichia coli O127:H6 E2348/69) (UniProt B7UM88)
Assay: co-IP; HeLa cells infected with EPEC-espF, espF+EspF, espF+EspF mod-wt or espF+EspF mod-RD; EspF immunoprecipitated with anti-FLAG antibodies; SNX proteins detected by SDS-PAGE and Western blotting

| Molecule | binding |
| --- | --- |
| sorting nexin 9 (SNX9) (from UniProt Q9Y5X1 1-595) | binds |
| B1 | binds |
| B2 | binds |
